{
  "sequences": {"note": "Sequences of proteins named here, by UniProt entry; tags and fusion partners are left off.", "UniProt Q16875": "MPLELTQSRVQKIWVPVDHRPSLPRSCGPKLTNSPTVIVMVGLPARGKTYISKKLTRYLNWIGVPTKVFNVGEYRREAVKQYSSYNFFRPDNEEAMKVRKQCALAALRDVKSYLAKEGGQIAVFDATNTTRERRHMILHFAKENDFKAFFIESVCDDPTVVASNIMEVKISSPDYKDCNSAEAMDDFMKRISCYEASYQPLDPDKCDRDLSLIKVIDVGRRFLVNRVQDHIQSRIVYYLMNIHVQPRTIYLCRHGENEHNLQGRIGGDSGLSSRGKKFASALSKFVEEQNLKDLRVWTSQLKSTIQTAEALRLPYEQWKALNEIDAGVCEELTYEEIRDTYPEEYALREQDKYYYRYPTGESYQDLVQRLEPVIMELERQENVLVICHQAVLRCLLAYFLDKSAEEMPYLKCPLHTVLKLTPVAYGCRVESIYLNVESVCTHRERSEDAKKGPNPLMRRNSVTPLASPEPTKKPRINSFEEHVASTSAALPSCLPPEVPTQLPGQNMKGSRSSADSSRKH"},
  "source": "paper PMC6155239",
  "about": "“Targeting PFKFB3 radiosensitizes cancer cells and suppresses homologous recombination” (Nature Communications, 2018)",
  "key": {"[1]": {"biological_target": "T1, RRM2 subunit of ribonucleotide reductase (human (endogenous in U2OS)) (UniProt P31350)", "T1 sequence": "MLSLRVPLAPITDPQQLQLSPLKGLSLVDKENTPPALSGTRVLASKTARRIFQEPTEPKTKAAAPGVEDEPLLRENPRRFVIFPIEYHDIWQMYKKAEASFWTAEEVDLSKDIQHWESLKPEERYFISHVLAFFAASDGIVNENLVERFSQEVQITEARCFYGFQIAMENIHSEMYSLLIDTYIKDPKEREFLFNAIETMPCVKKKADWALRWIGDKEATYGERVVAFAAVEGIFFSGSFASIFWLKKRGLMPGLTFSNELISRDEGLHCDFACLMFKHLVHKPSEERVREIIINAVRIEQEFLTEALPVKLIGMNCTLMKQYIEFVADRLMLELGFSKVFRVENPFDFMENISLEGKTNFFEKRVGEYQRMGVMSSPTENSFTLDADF", "assay": "co-IP; U2OS cells transfected with FLAG-PFKFB3, exposed to IR (6 Gy), lysed 2 h post-IR; supernatant immunoprecipitated with RRM2 antibody overnight at 4 °C, Protein G, immunoblot with FLAG antibody"}, "[2]": {"biological_target": "T1, RRM2 subunit of ribonucleotide reductase (human (endogenous in U2OS))", "assay": "co-IP; U2OS cells transfected with FLAG-PFKFB3, left untreated (non-IR); supernatant immunoprecipitated with RRM2 antibody overnight at 4 °C, Protein G, immunoblot with FLAG antibody"}},
  "note": "These are yes or no findings as the source states them, for the method shown. In cells and extracts the contact can be indirect. Some entries that bind do so weakly or less than the wild type.",
  "data": [
    {"substance": "FLAG-PFKFB3 (from UniProt Q16875 1-520) (enzyme)", "values": [
      {"measurement": "binding", "setting": "[1]", "value": "binds"},
      {"measurement": "binding", "setting": "[2]", "value": "no binding (condition: cells not exposed to IR)"}
    ]}
  ]
}
